Record: PubChem BioAssay AID1259308 (NCATS, 2017)
In all, the deposit lists about 59,000 reagents; this is a random part of them. Over the whole deposit, about 1,510 (2.6%) are marked active. 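Calls use total luciferase alone and ignore viability, so some active siRNAs may act by altering cell number.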 Unmarked entries are inactive. The numbers tell different reagents against one gene apart. Not all columns of the deposit are shown. Reagent sequences are not shown.

Aim: 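Genes whose loss raises luciferase production in HEK293 cells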 (primary screen)
Cell system: human HEK293 embryonic kidney cells stably expressing firefly luciferase (HEK-CMV-Luc2-Hygro)
Knock-down reagent: single siRNA against human genes, 0.8 pmol siRNA per well
Duration: 72 h
Measured: 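Luciferase light (ONE-Glo) measured on one replicate plate set and viability (CellTiter-Glo) on the other, scaled to a negative control siRNA, with robust z-scores and luciferase per cell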
Direction: total luciferase, z-score and total luciferase, % of control: higher = more reporter protein produced; luciferase per cell, z-score: higher = more reporter output per viable cell
Rule for the call: 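An siRNA counts as active if its total luciferase robust z-score exceeds 3; genes with two or more such siRNAs out of three were retested with fresh siRNAs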
Calls: active = raised luciferase; inactive = no rise

Target gene	reagent	total luciferase, z-score	total luciferase, % of control	luciferase per cell, z-score
BMS1P11 (GeneID 644632)	1	1.68	115	2.29
BMS1P11 (GeneID 644632)	2	-1.52	51.6	-0.436
BMS1P11 (GeneID 644632)	3	1.31	108	1.32
TLCD1 (GeneID 116238)	1	0.277	87.4	-0.129
TLCD1 (GeneID 116238)	2	-0.805	65.9	-0.428
TLCD1 (GeneID 116238)	3	0.23	86.5	0.209
LOC400756 (retired record) (GeneID 400756)	1	-0.098	79.9	-0.0305
LOC400756 (retired record) (GeneID 400756)	2	-2.79	26.5	-0.494
LOC400756 (retired record) (GeneID 400756)	3	-0.176	78.4	-0.182
SEC14L1 (GeneID 6397)	1	1.51	112	2.11
SEC14L1 (GeneID 6397)	2	-1.72	47.6	-1.26
SEC14L1 (GeneID 6397)	3	-1.59	50.2	-1.77
CLCN3 (GeneID 1182)	1	0.883	99.5	1.59
CLCN3 (GeneID 1182)	2	0.374	89.3	0.245
CLCN3 (GeneID 1182)	3	2.18	125	1.74
AMIGO1 (GeneID 57463)	1	2.4	130	1.75
AMIGO1 (GeneID 57463)	2	1.41	110	1.35
AMIGO1 (GeneID 57463)	3	0.479	91.4	0.94
TUBGCP5 (GeneID 114791)	1	0.118	84.2	-0.432
TUBGCP5 (GeneID 114791)	2	-0.06	80.7	0.132
TUBGCP5 (GeneID 114791)	3	1.59	114	1
CRTAP (GeneID 10491)	1	0.449	90.8	0.372
CRTAP (GeneID 10491)	2	-1.46	52.8	-0.966
CRTAP (GeneID 10491)	3	-1.26	56.8	-1.36
PTGES (GeneID 9536)	1	1.86	119	1.92
PTGES (GeneID 9536)	2	0.483	91.5	0.543
PTGES (GeneID 9536)	3	-0.176	78.4	-0.292
RPL15 (GeneID 6138)	1	-0.0595	80.7	0.63
RPL15 (GeneID 6138)	2	0.499	91.8	0.597
RPL15 (GeneID 6138)	3	0.434	90.5	0.264
EPHA5 (GeneID 2044)	1	-0.771	66.5	-0.526
EPHA5 (GeneID 2044)	2	-0.33	75.3	-1.04
EPHA5 (GeneID 2044)	3	-0.405	73.8	-0.402
KDM5B (GeneID 10765)	1	-0.711	67.8	-1.16
KDM5B (GeneID 10765)	2	-0.86	64.8	-0.609
KDM5B (GeneID 10765)	3	0.56	93	0.81
CDKL2 (GeneID 8999)	1	0.833	98.5	1.15
CDKL2 (GeneID 8999)	2	-0.885	64.3	-1.03
CDKL2 (GeneID 8999)	3	-0.438	73.2	-0.654
WDR33 (GeneID 55339)	1	-1.37	54.7	0.335
WDR33 (GeneID 55339)	2	-1.23	57.3	-1.33
WDR33 (GeneID 55339)	3	-1.24	57.3	-1.42
STAT5B (GeneID 6777)	1	0.546	92.7	0.491
STAT5B (GeneID 6777)	2	-0.212	77.7	-0.455
STAT5B (GeneID 6777)	3	0.193	85.7	-0.254
EFL1 (GeneID 79631)	1	0.221	86.3	-0.513
EFL1 (GeneID 79631)	2	1.67	115	1.34
EFL1 (GeneID 79631)	3	-0.406	73.8	0.434
ST6GALNAC3 (GeneID 256435)	1	1.56	113	1.78
ST6GALNAC3 (GeneID 256435)	2	-0.419	73.6	-0.389
ST6GALNAC3 (GeneID 256435)	3	-0.138	79.1	-0.0959
RIPK4 (GeneID 54101)	1	-0.197	78	-0.173
RIPK4 (GeneID 54101)	2	3.26 (active)	147	3.1
RIPK4 (GeneID 54101)	3	2.21	126	1.22
PRMT7 (GeneID 54496)	1	2.65	135	2.26
PRMT7 (GeneID 54496)	2	-0.734	67.3	-0.477
PRMT7 (GeneID 54496)	3	-0.222	77.5	0.0572

Targets above whose target name begins with R or r (6):
Target gene	reagent	total luciferase, z-score	total luciferase, % of control	luciferase per cell, z-score
RPL15 (GeneID 6138)	1	-0.0595	80.7	0.63
RPL15 (GeneID 6138)	2	0.499	91.8	0.597
RPL15 (GeneID 6138)	3	0.434	90.5	0.264
RIPK4 (GeneID 54101)	1	-0.197	78	-0.173
RIPK4 (GeneID 54101)	2	3.26 (active)	147	3.1
RIPK4 (GeneID 54101)	3	2.21	126	1.22
